Experimental data as given in patent US20190085097A1 (published 2019).
No constants are given. Whether binding was seen depends on the method and setting. Some binding calls cover weakened binding; strength is not graded here.

Sequences of proteins named here, by UniProt entry; tags and fusion partners are left off. A change or cut given only in a name is not applied to a line headed by its entry. Residues count along the entry.
UniProt P00747: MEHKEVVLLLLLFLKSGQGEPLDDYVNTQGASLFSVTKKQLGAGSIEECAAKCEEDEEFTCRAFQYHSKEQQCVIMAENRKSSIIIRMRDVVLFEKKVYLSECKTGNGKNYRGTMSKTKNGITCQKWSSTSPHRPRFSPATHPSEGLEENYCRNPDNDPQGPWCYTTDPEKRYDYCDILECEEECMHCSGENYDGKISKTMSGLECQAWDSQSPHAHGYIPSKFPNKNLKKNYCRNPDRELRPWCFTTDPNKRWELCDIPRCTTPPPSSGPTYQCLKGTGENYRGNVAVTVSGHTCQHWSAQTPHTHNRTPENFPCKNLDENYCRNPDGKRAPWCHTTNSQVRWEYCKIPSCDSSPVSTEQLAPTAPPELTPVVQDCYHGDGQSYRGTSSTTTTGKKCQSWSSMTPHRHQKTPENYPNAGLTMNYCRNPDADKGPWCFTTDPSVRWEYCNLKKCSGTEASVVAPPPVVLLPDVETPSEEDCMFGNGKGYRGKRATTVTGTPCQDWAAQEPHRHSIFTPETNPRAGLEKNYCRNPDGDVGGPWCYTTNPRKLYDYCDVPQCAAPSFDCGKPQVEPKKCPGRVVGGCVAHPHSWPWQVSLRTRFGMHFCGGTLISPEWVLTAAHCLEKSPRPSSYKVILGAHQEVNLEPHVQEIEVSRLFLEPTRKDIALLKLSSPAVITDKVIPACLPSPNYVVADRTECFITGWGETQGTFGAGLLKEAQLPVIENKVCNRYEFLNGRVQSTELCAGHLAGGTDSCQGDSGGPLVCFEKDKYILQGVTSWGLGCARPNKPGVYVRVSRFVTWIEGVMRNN
protease domain of plasmin (microplasmin): residues 562-810 of P00747

How the values were obtained:
human plasmin = human plasmin (human, UniProt P00747 97-810, limits assumed); test: summary of binding and inhibition assays
[1] = molecular target: protease domain of plasmin (microplasmin) (human) (UniProt P00747); test: immunoblot of reduced human plasmin
[2] = molecular target: protease domain of plasmin (microplasmin) (human) (UniProt P00747); test: summary of ELISA and immunoblot

Measured: binding

B1: monoclonal antibody plasmin inhibitor (Pi) (antibody, mouse IgG1, kappa, V domains shown)
VH: EVKLLESGGGLVQPGGSLKLSCAASGFDFSRYWMSWVRQAPGKGLEWIGEINPDSSTINYTPSLKDKFIISRDNAKNSLYLQMSKVRSEDTALYYCASYCGYSYDALDCWGQGTSVTVSS
VL: DIQMTQSPSSLSASLGGKVSITCKASQDINKYISWYQHKPGKGPRLLIHYTSTLQPGIPSRFSGSGSGRDYSFSISNLEPEDIATYYCLQYDNLYTFGGGTKLEIKR
notes: Mouse hybridoma IgG purified from supernatant; also called Pi IgG; Pi MAb38
binds: all assays above
